The values that follow come from paper PMC13042514.

Chains of the proteins cited; added tags and fusions are not shown. Lines headed by an entry give the natural chain unless they say otherwise; changes in a name come on top.
UniProt Q5T7N2: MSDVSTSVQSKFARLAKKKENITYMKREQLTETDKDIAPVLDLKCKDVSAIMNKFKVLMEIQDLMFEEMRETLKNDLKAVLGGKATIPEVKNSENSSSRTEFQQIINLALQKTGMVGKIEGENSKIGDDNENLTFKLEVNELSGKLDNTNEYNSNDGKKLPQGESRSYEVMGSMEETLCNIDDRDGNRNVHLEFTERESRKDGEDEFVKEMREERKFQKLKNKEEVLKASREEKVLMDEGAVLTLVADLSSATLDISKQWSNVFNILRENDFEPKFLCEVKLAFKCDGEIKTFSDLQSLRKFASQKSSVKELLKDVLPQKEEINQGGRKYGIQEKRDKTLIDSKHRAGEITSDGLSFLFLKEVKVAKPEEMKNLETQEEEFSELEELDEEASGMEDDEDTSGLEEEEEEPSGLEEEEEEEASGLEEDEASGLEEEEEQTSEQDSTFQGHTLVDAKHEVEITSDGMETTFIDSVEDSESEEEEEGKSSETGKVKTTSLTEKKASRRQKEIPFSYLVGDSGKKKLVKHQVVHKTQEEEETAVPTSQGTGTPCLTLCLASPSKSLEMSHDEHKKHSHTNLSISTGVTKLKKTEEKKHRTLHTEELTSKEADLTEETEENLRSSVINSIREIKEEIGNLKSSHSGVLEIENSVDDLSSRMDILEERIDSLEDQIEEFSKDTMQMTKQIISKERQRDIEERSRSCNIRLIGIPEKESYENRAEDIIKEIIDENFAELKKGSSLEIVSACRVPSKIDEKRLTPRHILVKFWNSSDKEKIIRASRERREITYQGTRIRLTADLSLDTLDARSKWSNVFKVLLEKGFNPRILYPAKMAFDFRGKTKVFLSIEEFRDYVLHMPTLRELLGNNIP
UniProt P51116, whole entry: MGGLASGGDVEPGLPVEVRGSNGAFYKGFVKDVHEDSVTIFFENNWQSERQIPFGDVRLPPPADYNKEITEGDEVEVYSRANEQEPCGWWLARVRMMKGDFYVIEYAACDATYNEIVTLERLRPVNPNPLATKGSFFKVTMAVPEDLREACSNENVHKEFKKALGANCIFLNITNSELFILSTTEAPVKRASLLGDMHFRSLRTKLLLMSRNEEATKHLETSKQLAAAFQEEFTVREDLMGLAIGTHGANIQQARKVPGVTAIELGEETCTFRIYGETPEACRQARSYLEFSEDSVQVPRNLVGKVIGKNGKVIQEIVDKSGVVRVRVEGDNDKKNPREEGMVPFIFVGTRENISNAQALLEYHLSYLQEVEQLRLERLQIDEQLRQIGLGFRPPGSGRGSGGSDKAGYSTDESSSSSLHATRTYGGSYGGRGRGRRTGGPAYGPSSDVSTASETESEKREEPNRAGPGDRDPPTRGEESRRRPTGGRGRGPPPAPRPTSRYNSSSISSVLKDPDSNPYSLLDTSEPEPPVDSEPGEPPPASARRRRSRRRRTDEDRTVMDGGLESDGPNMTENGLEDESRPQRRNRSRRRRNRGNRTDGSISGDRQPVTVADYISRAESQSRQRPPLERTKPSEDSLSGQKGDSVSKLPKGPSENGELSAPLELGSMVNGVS

Construct, isoform or probe ends are uncertain for at least one entry. For some assays here: A weaker result is weaker than the reference pair of the same experiment. For some assays here: Tags and fusion partners may be left off the protein sequences shown. For some assays here: Where cells or extracts were used, other partners may take part.

For series [1], the target named is T1, GST-DDX6 (UniProt P26196).
T1 sequence (looked up, limits assumed): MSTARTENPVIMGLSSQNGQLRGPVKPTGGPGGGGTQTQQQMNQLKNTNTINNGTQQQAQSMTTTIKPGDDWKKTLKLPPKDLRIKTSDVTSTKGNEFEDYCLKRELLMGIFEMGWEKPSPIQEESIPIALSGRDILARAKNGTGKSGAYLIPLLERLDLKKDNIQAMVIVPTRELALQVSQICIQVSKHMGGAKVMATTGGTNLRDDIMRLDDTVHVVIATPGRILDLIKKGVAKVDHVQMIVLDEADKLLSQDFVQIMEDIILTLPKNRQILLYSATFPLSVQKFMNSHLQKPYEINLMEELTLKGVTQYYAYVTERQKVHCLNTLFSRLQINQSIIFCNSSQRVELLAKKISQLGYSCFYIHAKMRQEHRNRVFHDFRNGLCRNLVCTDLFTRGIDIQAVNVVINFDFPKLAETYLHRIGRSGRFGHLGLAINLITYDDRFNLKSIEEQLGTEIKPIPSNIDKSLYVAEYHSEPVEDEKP
The series can be described thus: EMSA. Conditions: text: markedly reduced or absent, legend: not bound; EMSA: Beyotime GS606 kit binding buffer (composition not given), 1 ug protein and 1 uL of 2.5 nM biotin probe in 10 uL, on ice 10 min; recombinant protein; protein details: GST; label: biotin.

Series [2] deals with T2, GST-FUBP3 (UniProt Q96I24).
T2 sequence (looked up, limits assumed): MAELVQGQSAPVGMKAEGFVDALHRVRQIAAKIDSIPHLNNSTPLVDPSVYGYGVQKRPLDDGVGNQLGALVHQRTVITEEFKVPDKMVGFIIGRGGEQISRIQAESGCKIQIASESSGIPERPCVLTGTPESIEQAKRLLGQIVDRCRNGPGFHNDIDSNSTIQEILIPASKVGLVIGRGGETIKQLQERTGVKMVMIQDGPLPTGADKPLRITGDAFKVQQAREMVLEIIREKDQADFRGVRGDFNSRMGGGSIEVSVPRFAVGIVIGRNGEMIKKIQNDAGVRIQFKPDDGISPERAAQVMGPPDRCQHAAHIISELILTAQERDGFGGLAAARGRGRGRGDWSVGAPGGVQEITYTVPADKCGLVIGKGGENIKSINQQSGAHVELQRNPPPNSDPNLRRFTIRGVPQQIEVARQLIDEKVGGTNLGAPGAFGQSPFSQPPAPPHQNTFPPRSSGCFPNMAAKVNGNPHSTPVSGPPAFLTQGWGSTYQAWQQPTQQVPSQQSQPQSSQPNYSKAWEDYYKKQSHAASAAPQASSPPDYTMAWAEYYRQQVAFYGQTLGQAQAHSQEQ
The series can be described thus: EMSA. Conditions: text: markedly reduced or absent, legend: not bound; EMSA: Beyotime GS606 kit binding buffer (composition not given), 1 ug protein and 1 uL of 2.5 nM biotin probe in 10 uL, on ice 10 min; recombinant protein; protein details: GST; label: biotin. A general note: A gel shift assay detects complexes by their altered migration in electrophoresis.

Series [3] has as its target GST-L1TD1 (UniProt Q5T7N2). The series can be described thus: EMSA. As to conditions: text: markedly reduced or absent, legend: not bound; EMSA: Beyotime GS606 kit binding buffer (composition not given), 1 ug protein and 1 uL of 2.5 nM biotin probe in 10 uL, on ice 10 min; recombinant protein; protein details: GST; label: biotin.
Series [4] deals with GST-FXR2 (UniProt P51116). The series can be described thus: EMSA. As to conditions: text: markedly reduced or absent, legend: not bound; EMSA: Beyotime GS606 kit binding buffer (composition not given), 1 ug protein and 1 uL of 2.5 nM biotin probe in 10 uL, on ice 10 min; recombinant protein; protein details: GST; label: biotin.
Series [5] has as its target FXR2 (endogenous) (Homo sapiens) (UniProt P51116). Description: pull-down. Conditions: pull-down: Pierce 20164 kit, 50 pmol RNA, 200 ug total protein, 4 C 30-60 min, protein in an extract, label: 3' desthiobiotin.
In series [6] the target is T3, FUBP3 (endogenous) (Homo sapiens) (UniProt Q96I24).
T3 sequence (looked up, limits assumed): T2 sequence (looked up, limits assumed)
Description: pull-down. Conditions: pull-down: Pierce 20164 kit, 50 pmol RNA, 200 ug total protein, 4 C 30-60 min, protein in an extract, label: 3' desthiobiotin.

For series [7], the target named is T4, DDX6 (endogenous) (Homo sapiens) (UniProt P26196).
T4 sequence (looked up, limits assumed): T1 sequence (looked up, limits assumed)
Description: pull-down. As to conditions: pull-down: Pierce 20164 kit, 50 pmol RNA, 200 ug total protein, 4 C 30-60 min, protein in an extract, label: 3' desthiobiotin.

Series [8] concerns the target L1TD1 (endogenous) (Homo sapiens) (UniProt Q5T7N2). Description: pull-down. As to conditions: hESC extract; m6A at positions 9 and 15; pull-down: Pierce 20164 kit, 50 pmol RNA, 200 ug total protein, 4 C 30-60 min; protein in an extract; label: 3' desthiobiotin.
Setting [9] is: A549 extract, m6A bait bound instead of the control.
Setting [10] is: A549 and hESC extract, m6A at positions 9 and 15.

On to CGUCUCGGACUCGGACUGCU [ss-A (EMSA)], for which the binding result in series [1], in series [2], in series [3] and in series [4] was “binds more weakly” each time.

On to CGUCUCGGACUCGGACUGCU [ss-A (pull-down)], for which the binding result in series [5] (setting [9]), in series [6] (setting [9]) and in series [7] (setting [9]) was “binds more weakly” each time.

Consider “CGUCUCGGACUCGGACUGCU [ss-m6A (pull-down)]”, for which the binding result in series [8], in series [5] (setting [10]), in series [6] (setting [10]) and in series [7] (setting [10]) was “binds” throughout.
